Some of the results follow.
Experiments:
Assay in all cases: glycan array binding signal (z-score within array); higher = stronger binding
Conditions in all cases: glycan notation: IUPAC condensed, linker removed
[1] = target: Gal(b1-3)GlcNAc(b1-2)Man(a1-3)[Gal(b1-3)GlcNAc(b1-2)Man(a1-6)]Man(b1-4)GlcNAc(b1-4)[Fuc(a1-6)]GlcNAc
How it was run: (§1)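 Arrays were curated from the Consortium for Functional Glycomics database, 3228 in total, and kept only where the protein sequence was available. Binding is expressed as a within-array Z-score. This score was averaged across arrays of the same protein sequence at different concentrations or buffers and across linkers, and negative values can be read as non-binding.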

[2] = target: Gal(b1-3)GlcNAc(b1-2)Man(a1-3)[GlcNAc(b1-4)][Gal(b1-3)GlcNAc(b1-2)Man(a1-6)]Man(b1-4)GlcNAc(b1-4)GlcNAc
How it was run: as §1

[3] = target: Gal(b1-3)GlcNAc(b1-2)[Gal(b1-3)GlcNAc(b1-6)]Man(a1-6)[Gal(b1-3)GlcNAc(b1-2)Man(a1-3)]Man(b1-4)GlcNAc(b1-4)GlcNAc
How it was run: as §1

[4] = target: Gal(b1-3)GlcNAc(b1-3)Gal(b1-3)GlcNAc
How it was run: as §1

[5] = target: Gal(b1-3)GlcNAc(b1-3)Gal(b1-4)Glc
How it was run: as §1

[6] = target: Gal(b1-3)GlcNAc(b1-3)Gal(b1-4)GlcNAc
How it was run: as §1

[7] = target: Gal(b1-3)GlcNAc(b1-3)Gal(b1-4)GlcNAc(b1-2)Man(a1-3)[Gal(b1-3)GlcNAc(b1-3)Gal(b1-4)GlcNAc(b1-2)Man(a1-6)]Man(b1-4)GlcNAc(b1-4)GlcNAc
How it was run: as §1

[8] = target: Gal(b1-3)GlcNAc(b1-3)Gal(b1-4)GlcNAc(b1-2)[Gal(b1-3)GlcNAc(b1-3)Gal(b1-4)GlcNAc(b1-6)]Man(a1-6)[Gal(b1-3)GlcNAc(b1-3)Gal(b1-4)GlcNAc(b1-2)Man(a1-3)]Man(b1-4)GlcNAc(b1-4)[Fuc(a1-6)]GlcNAc
How it was run: as §1

[9] = target: Gal(b1-3)GlcNAc(b1-3)Gal(b1-4)GlcNAc(b1-3)Gal(b1-4)GlcNAc(b1-2)[Gal(b1-3)GlcNAc(b1-3)Gal(b1-4)GlcNAc(b1-3)Gal(b1-4)GlcNAc(b1-6)]Man(a1-6)[Gal(b1-3)GlcNAc(b1-3)Gal(b1-4)GlcNAc(b1-3)Gal(b1-4)GlcNAc(b1-2)Man(a1-3)]Man(b1-4)GlcNAc(b1-4)[Fuc(a1-6)]GlcNAc
How it was run: as §1

[10] = target: Gal(b1-3)GlcNAc(b1-3)Gal(b1-4)GlcNAc(b1-6)[Gal(b1-3)GlcNAc(b1-3)]Gal(b1-4)Glc
How it was run: as §1

[11] = target: Gal(b1-3)GlcNAc(b1-3)Gal(b1-4)[Fuc(a1-3)]GlcNAc
How it was run: as §1

[12] = target: Gal(b1-3)GlcNAc(b1-3)Gal(b1-4)[Fuc(a1-3)]GlcNAc(b1-6)[Gal(b1-3)GlcNAc(b1-3)]Gal(b1-4)Glc
How it was run: as §1

[13] = target: Gal(b1-3)GlcNAc(b1-3)GalNAc
How it was run: as §1

[14] = target: Gal(b1-3)GlcNAc(b1-6)Gal(b1-4)GlcNAc
How it was run: as §1

[15] = target: Gal(b1-3)GlcNAc(b1-6)GalNAc
How it was run: as §1

[16] = target: Gal(b1-3)GlcNAc(b1-6)[Gal(b1-3)]GalNAc
How it was run: as §1

Gal(b1-3)GlcNAc6S = target: Gal(b1-3)GlcNAc6S
How it was run: as §1

[17] = target: Gal(b1-3)[Fuc(a1-4)]GlcNAc
How it was run: as §1

[18] = target: Gal(b1-3)[Fuc(a1-4)]GlcNAc(b1-2)Man
How it was run: as §1

[19] = target: Gal(b1-3)[Fuc(a1-4)]GlcNAc(b1-2)Man(a1-3)[Gal(b1-3)[Fuc(a1-4)]GlcNAc(b1-2)Man(a1-6)]Man(b1-4)GlcNAc(b1-4)[Fuc(a1-6)]GlcNAc
How it was run: as §1

[20] = target: Gal(b1-3)[Fuc(a1-4)]GlcNAc(b1-3)Gal(b1-3)[Fuc(a1-4)]GlcNAc
How it was run: as §1

[21] = target: Gal(b1-3)[Fuc(a1-4)]GlcNAc(b1-3)Gal(b1-4)[Fuc(a1-3)]GlcNAc
How it was run: as §1

[22] = target: Gal(b1-3)[Fuc(a1-4)]GlcNAc(b1-6)GalNAc
How it was run: as §1

[23] = target: Gal(b1-3)[GlcNAc(b1-6)]GalNAc
How it was run: as §1

[24] = target: Gal(b1-3)[Neu5Ac(a2-6)]GalNAc
How it was run: as §1

[25] = target: Gal(b1-3)[Neu5Ac(a2-6)]GlcNAc(b1-4)Gal(b1-4)Glc
How it was run: as §1

[26] = target: Gal(b1-3)[Neu5Ac(b2-6)]GalNAc
How it was run: as §1

Gal(b1-4)Gal = target: Gal(b1-4)Gal
How it was run: as §1

[27] = target: Gal(b1-4)GalNAc(a1-3)[Fuc(a1-2)]Gal(b1-4)GlcNAc
How it was run: as §1

[28] = target: Gal(b1-4)GalNAc(b1-3)[Fuc(a1-2)]Gal(b1-4)GlcNAc
How it was run: as §1

Gal(b1-4)Glc = target: Gal(b1-4)Glc
How it was run: as §1

Gal(b1-4)Glc6S = target: Gal(b1-4)Glc6S
How it was run: as §1

Gal(b1-4)GlcNAc = target: Gal(b1-4)GlcNAc
How it was run: as §1

[29] = target: Gal(b1-4)GlcNAc(a1-6)Gal(b1-4)GlcNAc
How it was run: as §1

Gal(b1-4)GlcNAc(b1-2)Man = target: Gal(b1-4)GlcNAc(b1-2)Man
How it was run: as §1

[30] = target: Gal(b1-4)GlcNAc(b1-2)Man(a1-3)Man(b1-4)GlcNAc(b1-4)GlcNAc
How it was run: as §1

[31] = target: Gal(b1-4)GlcNAc(b1-2)Man(a1-3)[Gal(b1-4)GlcNAc(b1-2)Man(a1-6)]Man(b1-4)GlcNAc(b1-4)GlcNAc
How it was run: as §1

B1: his-Lectin-24A (Drosophila melanogaster) (protein)
chain: MFRLSVLVLNLLLVSHEFSAGTAKIEIQPLPALCNGYCFPTLKPVMEYVAIHQDKWNTCTEILANEARKDQIQLNIQLDALKADVSNIKASQLSKDEKLDRMEREQFAMHESLETINRYLTVKLDRTKLQLEAIKNTMDYMKAQMDGYFSAINGVQCLQPGFEKIGDRYFYIEEDVELNWLDAQAKCRRMGGHLASIKTKQEFDAIVEKLDDSKSYFLGVNENTKTGDFVSAASGKSCLYHEWGPGEPHHNNDQERCVSILRKLMHVGNCTYEKRFICQYGI
Question: How did the “glycan array binding signal (z-score)” value [1] turn out when B1 was run?
Answer: 0.19

Question: And the “glycan array binding signal (z-score)” value [2]?
Answer: -0.99

Question: What about the “glycan array binding signal (z-score)” value [3] of the same binder?
Answer: 0.673

Question: And the “glycan array binding signal (z-score)” value [4]?
Answer: -0.423

Question: And the “glycan array binding signal (z-score)” value [5]?
Answer: -0.563

Question: And the “glycan array binding signal (z-score)” value [6]?
Answer: 0.371

Question: What about the “glycan array binding signal (z-score)” value [7] of the same binder?
Answer: -0.845

Question: And the “glycan array binding signal (z-score)” value [8]?
Answer: 1.32

Question: What about the “glycan array binding signal (z-score)” value [9] of the same binder?
Answer: 1.49

Question: And the “glycan array binding signal (z-score)” value [10]?
Answer: -0.902

Question: What about the “glycan array binding signal (z-score)” value [11] of the same binder?
Answer: 0.758

Question: And the “glycan array binding signal (z-score)” value [12]?
Answer: -1.27

Question: And the “glycan array binding signal (z-score)” value [13]?
Answer: -1.15

Question: What about the “glycan array binding signal (z-score)” value [14] of the same binder?
Answer: -1.08

Question: What about the “glycan array binding signal (z-score)” value [15] of the same binder?
Answer: 0.548

Question: And the “glycan array binding signal (z-score)” value [16]?
Answer: -0.999

Question: And the “glycan array binding signal (z-score)” value (Gal(b1-3)GlcNAc6S)?
Answer: 1.62

Question: And the “glycan array binding signal (z-score)” value [17]?
Answer: 1.03

Question: And the “glycan array binding signal (z-score)” value [18]?
Answer: 0.254

Question: And the “glycan array binding signal (z-score)” value [19]?
Answer: 1.62

Question: What about the “glycan array binding signal (z-score)” value [20] of the same binder?
Answer: -0.619

Question: What about the “glycan array binding signal (z-score)” value [21] of the same binder?
Answer: -0.545

Question: What about the “glycan array binding signal (z-score)” value [22] of the same binder?
Answer: 2.34

Question: What about the “glycan array binding signal (z-score)” value [23] of the same binder?
Answer: 0.25

Question: And the “glycan array binding signal (z-score)” value [24]?
Answer: -0.786

Question: What about the “glycan array binding signal (z-score)” value [25] of the same binder?
Answer: -0.215

Question: What about the “glycan array binding signal (z-score)” value [26] of the same binder?
Answer: -0.581

Question: And the “glycan array binding signal (z-score)” value (Gal(b1-4)Gal)?
Answer: 1.07

Question: What about the “glycan array binding signal (z-score)” value [27] of the same binder?
Answer: -0.55

Question: And the “glycan array binding signal (z-score)” value [28]?
Answer: -0.273

Question: And the “glycan array binding signal (z-score)” value (Gal(b1-4)Glc)?
Answer: -0.232

Question: What about the “glycan array binding signal (z-score)” value (Gal(b1-4)Glc6S) of the same binder?
Answer: 0.582

Question: What about the “glycan array binding signal (z-score)” value (Gal(b1-4)GlcNAc) of the same binder?
Answer: -0.466

Question: And the “glycan array binding signal (z-score)” value [29]?
Answer: 0.567

Question: What about the “glycan array binding signal (z-score)” value (Gal(b1-4)GlcNAc(b1-2)Man) of the same binder?
Answer: -0.691

Question: And the “glycan array binding signal (z-score)” value [30]?
Answer: 0.019

Question: What about the “glycan array binding signal (z-score)” value [31] of the same binder?
Answer: -0.222

From the supplement of paper PMC8728848
